For at least one compound, name, drawing or mass did not settle the structure.
Tests used:
[1] = system: THP-1 and human CD34+ primary AML cells; test: DNA content analysis and myeloid marker flow cytometry of AML cells; format: cell-based; conditions: THP-1, palbociclib 500 nM; 24 h
[2] = system: THP-1 cells; test: DNA damage by γ-H2A.X foci and western blot in THP-1 cells; format: cell-based, human; conditions: THP-1, palbociclib 500 nM, Doxorubicin 0.1 μM
Description: DNA damage evaluation by analysis of γ-H2A.X foci. […] Lower panels show γ-H2A.X signals only. […] In FIG. 6C, DNA damage was assessed by γ-H2A.X western blot in drug-treated THP-1 cell extracts.
(§1) FIG. 10B is a series of images showing immunofluorescence microscopy of γ-H2A.X foci in untreated or drug-treated (Doxorubicin 0.1 μM, palbociclib 500 nM) THP-1 cells. γ-H2A.X light gray, DAPI dark gray. In FIG. 10C, apoptosis was analyzed by Caspase 3/7 activity by flow cytometry.
The role of chromatin structure in cytotoxic agent-induced DNA damage was also assessed by investigating the formation of γ-H2A.X foci by confocal microscopy.

[3] = system: THP-1 cells; test: Apoptosis by Caspase-3/7 activity (flow cytometry) in THP-1 cells; format: cell-based, human
Description: FIGS. 9A-9B illustrate apoptosis of drug-treated cells. THP-1 (FIG. 9A) and primary CD34+ AML samples (FIG. 9B) were left untreated (CNTR), treated with Doxorubicin alone (0.1 μM), Etoposide alone (0.5 μM) or in combination with the EZH2 inhibitor GSK-126 (0.5 μM) for 48 hours. Apoptosis was analyzed by Caspase-3/7 activity by flow cytometry.
as §1, with “FIGS. 10A-10C illustrate that treatment with the CDK4/CDK6 inhibitor palbociclib suppresses Doxorubicin-induced DNA damage. […] FIG. 10B” for “FIG. 10B”
THP-1 cells were treated with Palbociclib (500 nM) for 24 hours to induce a G1-arrest. […] Anova ***p<0.001; (Right) Apoptosis analyzed by Caspase 3/7 activity by flow cytometry. Mean+/−SEM. Anova; *p<0.1 **p<0.01
To assess whether cell cycle synchronization through pre-conditioning with a CDK4/6 inhibitor prior to treatment, a subsequent study was performed in which THP-1 cells were treated with Palbociclib (500 nM) for 24 hours to induce a G1-arrest. […] (FIG. 15, Right) Apoptosis of treated cells was also analyzed by Caspase 3/7 activity by flow cytometry.

CC(=O)c1c(C)c2cnc(Nc3ccc(N4CCNCC4)cn3)nc2n(C2CCCC2)c1=O [palbociclib, 6-acetyl-8-cyclopentyl-5-methyl-2-(5-piperazin-1-yl-pyridin-2-ylammino)-8H-pyrido-[2,3-d]-pyrimidin-7-one]
cell cycle (DNA content analysis) [1]: blocks the cells in G1 preventing S phase entry
Doxorubicin-induced DNA damage and its potentiation by EZH2 inhibition [2]: suppressed
Doxorubicin-induced apoptosis and its potentiation by EZH2 inhibition ([3]; THP-1, palbociclib 500 nM, Doxorubicin 0.1 μM): suppressed
apoptotic synergy of GSK126 and Doxorubicin after cell cycle synchronization ([3]; THP-1, Palbociclib 500 nM 24 hours, washed out, GSK126 5 μM 12 hours, then Doxorubicin 0.1 μM): further enhanced
